No constants are given. Whether binding was seen depends on the method and setting. In cells and extracts the contact can be indirect. Some binding calls cover weakened binding; strength is not graded here. For some of these results: Sequences can lack the tags named with a protein.
Columns and labels:
[1] = biological target: eIF3b (human (endogenous in HepG2, Huh7)), P55884; assay: proximity ligation; HepG2 cells, fixed with 4% paraformaldehyde and permeabilised; Duolink; mouse anti-Flag with rabbit anti-eIF3a, or rabbit anti-METTL16 with mouse anti-eIF3b; conditions: remark: other sources report otherwise
[2] = biological target: eIF3b (human (endogenous in HepG2, Huh7)), P55884; assay: co-IP; lysates of HepG2 and Huh7 cells in RIPA buffer, pre-cleared; anti-FLAG, anti-HA, anti-eIF3a or anti-eIF3b antibody (normal IgG as control), Protein A/G magnetic beads overnight at 4 °C; washes with 10 mM Tris-HCl pH 7.5, 1 mM EDTA, 150 mM NaCl, 1% Triton-X; Western blotting; which antibody precipitated in which panel is not stated; conditions: remark: other sources report otherwise
[3] = biological target: T1, eukaryotic translation initiation factor 3 subunit a (eIF3a) (human (endogenous in HepG2, Huh7)), Q14152; assay: as above; conditions: remark: other sources report otherwise
[4] = biological target: BOP1 with a HA tag at the N terminus (human) (UniProt Q14137); assay: as above
[5] = biological target: T2, DDX47 with a HA tag at the N terminus (human) (UniProt Q9H0S4); assay: as above
T2 sequence: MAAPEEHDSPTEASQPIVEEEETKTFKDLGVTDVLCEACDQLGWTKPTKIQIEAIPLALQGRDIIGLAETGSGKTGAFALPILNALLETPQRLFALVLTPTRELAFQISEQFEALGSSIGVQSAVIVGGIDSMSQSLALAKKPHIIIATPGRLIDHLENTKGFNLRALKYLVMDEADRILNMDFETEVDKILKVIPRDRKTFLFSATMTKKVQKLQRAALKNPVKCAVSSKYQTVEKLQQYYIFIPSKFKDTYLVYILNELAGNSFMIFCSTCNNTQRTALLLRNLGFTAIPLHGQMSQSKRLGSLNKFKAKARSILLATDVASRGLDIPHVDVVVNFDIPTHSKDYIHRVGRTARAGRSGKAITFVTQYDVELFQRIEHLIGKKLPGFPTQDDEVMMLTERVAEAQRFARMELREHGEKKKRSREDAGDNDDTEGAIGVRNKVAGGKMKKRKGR

Sequences of proteins named here, by UniProt entry; tags and fusion partners are left off.
UniProt Q14137: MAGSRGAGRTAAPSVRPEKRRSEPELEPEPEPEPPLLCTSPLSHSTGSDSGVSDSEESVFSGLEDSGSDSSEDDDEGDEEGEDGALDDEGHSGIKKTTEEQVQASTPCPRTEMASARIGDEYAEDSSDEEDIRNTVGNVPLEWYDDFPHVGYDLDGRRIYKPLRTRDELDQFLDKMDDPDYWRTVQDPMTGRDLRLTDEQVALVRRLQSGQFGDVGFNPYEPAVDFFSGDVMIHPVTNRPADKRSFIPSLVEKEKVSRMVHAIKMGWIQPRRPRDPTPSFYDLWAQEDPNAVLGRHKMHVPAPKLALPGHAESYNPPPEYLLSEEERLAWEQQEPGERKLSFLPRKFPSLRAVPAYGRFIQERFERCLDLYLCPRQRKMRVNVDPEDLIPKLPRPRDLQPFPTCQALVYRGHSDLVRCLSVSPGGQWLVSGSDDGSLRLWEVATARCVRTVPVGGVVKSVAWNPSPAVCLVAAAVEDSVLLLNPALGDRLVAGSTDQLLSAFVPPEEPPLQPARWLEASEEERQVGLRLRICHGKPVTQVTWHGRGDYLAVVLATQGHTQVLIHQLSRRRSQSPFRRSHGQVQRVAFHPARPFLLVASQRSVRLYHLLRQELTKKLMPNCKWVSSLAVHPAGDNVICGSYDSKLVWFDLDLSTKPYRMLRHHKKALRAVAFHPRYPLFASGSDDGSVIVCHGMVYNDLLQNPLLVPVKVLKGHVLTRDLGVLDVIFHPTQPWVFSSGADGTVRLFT

[6] = biological target: T3, DDX49 with a HA tag at the N terminus (human) (UniProt Q9Y6V7); assay: as above
T3 sequence: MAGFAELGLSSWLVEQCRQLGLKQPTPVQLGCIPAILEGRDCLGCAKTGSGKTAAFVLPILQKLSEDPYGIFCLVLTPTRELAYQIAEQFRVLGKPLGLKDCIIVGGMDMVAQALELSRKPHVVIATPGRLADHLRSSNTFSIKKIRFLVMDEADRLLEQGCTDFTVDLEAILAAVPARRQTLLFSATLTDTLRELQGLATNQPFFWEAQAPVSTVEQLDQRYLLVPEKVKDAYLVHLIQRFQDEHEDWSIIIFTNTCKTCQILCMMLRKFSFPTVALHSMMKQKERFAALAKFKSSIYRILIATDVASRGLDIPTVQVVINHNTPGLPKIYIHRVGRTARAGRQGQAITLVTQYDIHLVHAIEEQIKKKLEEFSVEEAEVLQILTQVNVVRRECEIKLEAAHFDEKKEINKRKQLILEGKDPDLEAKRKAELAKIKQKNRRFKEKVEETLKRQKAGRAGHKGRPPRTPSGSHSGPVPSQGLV

[7] = biological target: T1, eukaryotic translation initiation …; assay: proximity ligation; HepG2 cells, fixed with 4% paraformaldehyde and permeabilised; Duolink; mouse anti-Flag with rabbit anti-eIF3a, or rabbit anti-METTL16 with mouse anti-eIF3b; conditions: remark: other sources report otherwise

B1: Methyltransferase 16 (METTL16), Q86W50 1-562 (enzyme)
chain: MALSKSMHARNRYKDKPPDFAYLASKYPDFKQHVQINLNGRVSLNFKDPEAVRALTCTLLREDFGLSIDIPLERLIPTVPLRLNYIHWVEDLIGHQDSDKSTLRRGIDIGTGASCIYPLLGATLNGWYFLATEVDDMCFNYAKKNVEQNNLSDLIKVVKVPQKTLLMDALKEESEIIYDFCMCNPPFFANQLEAKGVNSRNPRRPPPSSVNTGGITEIMAEGGELEFVKRIIHDSLQLKKRLRWYSCMLGKKCSLAPLKEELRIQGVPKVTYTEFCQGRTMRWALAWSFYDDVTVPSPPSKRRKLEKPRKPITFVVLASVMKELSLKASPLRSETAEGIVVVTTWIEKILTDLKVQHKRVPCGKEEVSLFLTAIENSWIHLRRKKRERVRQLREVPRAPEDVIQALEEKKPTPKESGNSQELARGPQERTPCGPALREGEAAAVEGPCPSQESLSQEENPEPTEDERSEEKGGVEVLESCQGSSNGAQDQEASEQFGSPVAERGKRLPGVAGQYLFKCLINVKKEVDDALVEMHWVEGQNRDLMNQLCTYIRNQIFRLVAVN
For B1, which binding [1] is on record?
The binding was “binds”.

What about the binding [2] of the same binder?
The binding was “binds”.

What about the binding [3] of the same binder?
The binding was “binds”.

B2: Methyltransferase 16 (METTL16) (enzyme, UniProt Q86W50 1-562)
chain: B1 chain
What does the source list for B2?
binding [4]: binds; binding [5]: binds; binding [6]: binds

B3: Flag-tagged METTL16, Q86W50 1-562 (enzyme)
chain: B1 chain
B3 was tested. Which binding [7] did it give?
The binding was “binds”.
